The subject of data set [1] is mouse model of generalised seizure (tonic hind limb extensor convulsions). As to the kind of experiment: mini-MEST (maximal electroshock seizure threshold, minimal sample sizes) test in the mouse. The note with it: 2.5 mg/kg i.p., 30 min post dose. On the procedure:
The maximal electroshock seizure threshold (MEST) test is widely utilized preclinically to evaluate pro- or anti-convulsant properties of test compounds (Loscher et al., 1991).
(§1) In the MEST test the ability of a drug to alter the seizure threshold current required to induce hind limb tonic extensor convulsions is measured according to an “up and down” method of shock titration (Kimball et al., 1957). An increase in seizure threshold is indicative of anti-convulsant effect.
(§2) The ability of a test compound to alter the stimulus intensity, expressed as current (mA), required to induce the presence of tonic hind limb extensor convulsions, is assessed in the MEST.
(§3) All animals were weighed at the beginning of the study and randomly assigned to treatment groups based on a mean distribution of body weight across groups.
The first animal within a treatment group was given a shock at the expected or estimated CC50 current. For subsequent animals, the current was lowered or raised depending on the convulsions outcome from the preceding animal in log scale intervals.
Data generated from each treatment group were used to calculate the CC50±SEM values for the treatment group. […]
(§4) Test compound effects were also calculated as percentage change in CC50 from the vehicle control group.
(§5) Significant difference between drug-treated animals and controls were assessed according to Litchfield and Wilcoxon (1949).

Data set [2] has the same test system. Kind of data set: Maximal electroshock seizure threshold (MEST) test in the mouse. The note with it: 2.5 mg/kg i.p., 30 min post dose. On the procedure:
The efficacy of the novel resorcinol according to the compound of Formula I was tested in a mouse model of generalised seizure, the maximal electroshock seizure threshold (MEST) test.
as §1, §2, §3
The first animal within a treatment group was given a shock at the expected or estimated CC50 current. For subsequent animals, the current was lowered or raised depending on the convulsions outcome from the preceding animal, in intervals of 5 mA. […]
as §4, §5
On the technique in general: In the maximal electroshock model the usual endpoint is tonic extension of the hind limbs.

As for `CN1C(=O)CN=C(c2ccccc2)c2cc(Cl)ccc21` [Diazepam, diazepam, reference compound], the “CC50 +/− SEM” value in data set [1] is listed as 89.0 +/− 3.4 mA; in data set [1] (listed as diazepam), 89.0 mA; in data set [2], 130.0 ± 1.1 mA; in data set [2] (listed as diazepam), 130.0 mA.

For the origin of these results see patent US20240238218A1, “[…] A PHARMACEUTICALLY ACTIVE COMPOUND AND METHOD OF PREPARATION THEREOF” (GW Research Limited, priority 2021, published 2024).
